Results are given in words; binding and its absence hold for the method and conditions named. In cells and extracts the contact can be indirect. Some entries that bind do so weakly or less than the wild type.
T1: integrin α 11 (human (endogenous in Het-1A)) (UniProt Q9UKX5)
T1 sequence: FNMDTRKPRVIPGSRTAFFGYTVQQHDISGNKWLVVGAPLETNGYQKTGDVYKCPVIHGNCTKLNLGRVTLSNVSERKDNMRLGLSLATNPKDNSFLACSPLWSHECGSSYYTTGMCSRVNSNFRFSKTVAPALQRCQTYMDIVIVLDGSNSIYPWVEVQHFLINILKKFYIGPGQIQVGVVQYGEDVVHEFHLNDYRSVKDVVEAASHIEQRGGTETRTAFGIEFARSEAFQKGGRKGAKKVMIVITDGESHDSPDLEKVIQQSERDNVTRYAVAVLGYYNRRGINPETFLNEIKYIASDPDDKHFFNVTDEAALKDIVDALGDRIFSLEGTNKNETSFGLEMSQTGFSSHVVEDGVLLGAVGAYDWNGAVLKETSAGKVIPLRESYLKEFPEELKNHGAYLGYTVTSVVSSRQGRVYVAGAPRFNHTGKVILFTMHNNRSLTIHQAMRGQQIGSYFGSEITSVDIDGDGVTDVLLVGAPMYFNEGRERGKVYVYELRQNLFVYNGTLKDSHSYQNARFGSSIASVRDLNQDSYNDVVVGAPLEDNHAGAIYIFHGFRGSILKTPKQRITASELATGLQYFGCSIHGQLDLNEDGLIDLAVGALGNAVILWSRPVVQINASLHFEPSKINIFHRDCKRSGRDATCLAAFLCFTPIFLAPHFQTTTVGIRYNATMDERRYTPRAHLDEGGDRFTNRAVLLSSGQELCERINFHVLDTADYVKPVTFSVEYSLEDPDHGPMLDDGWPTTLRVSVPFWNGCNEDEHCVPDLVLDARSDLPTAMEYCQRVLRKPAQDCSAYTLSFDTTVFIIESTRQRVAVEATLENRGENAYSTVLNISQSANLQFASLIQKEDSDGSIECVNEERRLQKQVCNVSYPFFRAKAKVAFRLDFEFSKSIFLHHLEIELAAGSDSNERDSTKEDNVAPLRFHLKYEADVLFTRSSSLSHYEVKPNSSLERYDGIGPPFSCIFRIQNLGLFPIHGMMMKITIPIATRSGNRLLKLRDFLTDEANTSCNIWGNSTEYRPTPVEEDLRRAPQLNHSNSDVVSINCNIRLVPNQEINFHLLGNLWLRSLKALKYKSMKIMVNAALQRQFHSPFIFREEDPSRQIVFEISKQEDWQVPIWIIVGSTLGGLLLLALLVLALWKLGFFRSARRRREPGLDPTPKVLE


Legend:
[1] = target: T1, integrin α 11 (human (endogenous in Het-1A)); test: proximity ligation; Duolink PLA in situ on Het-1A cells treated with recombinant CCN1 (100 ng/mL, 6 hours), fixed in cold acetone; goat anti-integrin α 11 coupled with rabbit anti-CCN1; probes in proximity of less than 40 nm; only the binder purified
[2] = target: T1, integrin α 11 (human (endogenous in Het-1A)); test: condition: only with excessive CCN1 antibody added to the cell culture; proximity ligation; Duolink PLA in situ on Het-1A cells treated with recombinant CCN1 (100 ng/mL, 6 hours), fixed in cold acetone; goat anti-integrin α 11 coupled with rabbit anti-CCN1; probes in proximity of less than 40 nm; only the binder purified
[3] = target: T1, integrin α 11 (human (endogenous in Het-1A)); test: proximity ligation; Duolink PLA in situ on nontreated (control) Het-1A cells, fixed in cold acetone; goat anti-integrin α 11 coupled with rabbit anti-CCN1; both proteins endogenous

binding [1] | binding [2] | binding [3] | Binder
binds | no binding | – | recombinant human CCN1 protein (ligand, UniProt O00622 25-381) TCPAACHCPLEAPKCAPGVGLVRDGCGCCKVCAKQLNEDCSKTQPCDHTKGLECNFGASSTALKGICRAQSEGRPCEYNSRIYQNGESFQPNCKHQCTCIDGAVGCIPLCPQELSLPNLGCPNPRLVKVTGQCCEEWVCDEDSIKDPMEDQDGLLGKELGFDASEVELTRNNELIAVGKGSSLKRLPVFGMEPRILYNPLQGQKCIVQTTSWSQCSKTCGTGISTRVTNDNPECRLVKETRICEVRPCGQPVYSSLKKGKKCSKTKKSPEPVRFTYAGCLSVKKYRPKYCGSCVDGRCCTPQLTRTVKMRFRCEDGETFSKNVMMIQSCKCNYNCPHANEAAFPFYRLFNDIHKFRD
– | – | binds weakly | endogenous CCN1 (protein, UniProt O00622 25-381) TCPAACHCPLEAPKCAPGVGLVRDGCGCCKVCAKQLNEDCSKTQPCDHTKGLECNFGASSTALKGICRAQSEGRPCEYNSRIYQNGESFQPNCKHQCTCIDGAVGCIPLCPQELSLPNLGCPNPRLVKVTGQCCEEWVCDEDSIKDPMEDQDGLLGKELGFDASEVELTRNNELIAVGKGSSLKRLPVFGMEPRILYNPLQGQKCIVQTTSWSQCSKTCGTGISTRVTNDNPECRLVKETRICEVRPCGQPVYSSLKKGKKCSKTKKSPEPVRFTYAGCLSVKKYRPKYCGSCVDGRCCTPQLTRTVKMRFRCEDGETFSKNVMMIQSCKCNYNCPHANEAAFPFYRLFNDIHKFRD

From PMC3371350
